These results are taken from PubChem BioAssay AID445 (National Center for Advancing Translational Sciences (NCATS), 2006).

Some of the results follow. Further columns of the screen follow, without active or inactive calls. The list favours compounds with an active or inconclusive main result. Potencies come from curve fits of mixed quality, noted in brackets.

The assay can be described thus: IkB Signaling. The settings on record: ABC-DLBCL IkBa-CBG/CBR dual luciferase ratio (green luciferase fused to IkBa over red control in OCI-Ly3 lymphoma cells), 4 h. Summed up:
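Curves were fitted separately to fusion (green), unfused (red) and ratio luminescence, then classed by r2, magnitude and activity. Cells: OCI-Ly3, 4 h compound plus doxycycline at 37C; 10 uM MG-132 defined full response.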

[1] abbreviates: measured here: control luc red channel unless noted.
The mark [2] stands for this setting: measured here: IkB-luc green channel.
[3] abbreviates: measured here: control luc red channel.

As to `Cc1c(C(=O)Nc2ccc(N3CCOCC3)cc2)oc2ccccc12`, under setting [1], the AC50 is 25.1 µM [falling, partial curve].

Turning to `O=C(Cn1c(=O)n(-c2ccccc2Cl)c(=O)c2sc3ccccc3c21)N1CCCC1`, the AC50 under setting [1] was 0.01 µM [falling, full curve, poor fit].

Consider `CCOc1cc2sc(N3CCC(C(=O)Nc4ccc(C)cc4)CC3)nc2cc1Br`, for which the AC50 under setting [1] was 1.26 µM [falling, full curve].

For `COc1ccccc1-c1cc(C(=O)N2CCCCC2)no1`, the AC50 under setting [1] was 25.1 µM [falling, partial curve].

On to `CCc1ccc(CSc2nc(-c3ccc(OC)cc3)nc3c2Cc2c(CO)cnc(C)c2O3)cc1`, for which the half-maximal activity concentration (AC50) under setting [1] was 2.51 µM [rising, partial curve].

Turning to `COc1ccc(CNC(=O)CN(c2ccccc2OC)S(=O)(=O)c2ccc(C)cc2)cc1`, the AC50 under setting [1] is 3.16 µM [falling, partial curve].

As to `CC(=O)Nc1cccc(NC(=O)c2c(-c3c(Cl)cccc3Cl)noc2C)c1`, the AC50 under setting [1] is 12.6 µM [falling, partial curve].

On to `Cc1ccc(NC(=O)Cn2ncn3c(cc4ccccc43)c2=O)c(C)c1`, for which, under setting [1], the AC50 was 3.98 µM [rising, full curve].

As to `CCOc1ccc2[nH]c(=O)c(CN(Cc3ccc(F)cc3)C(=O)c3ccco3)cc2c1`, the AC50 is, setting by setting: under setting [2], 39.8 µM [falling, single point]; under setting [3], 39.8 µM [falling, single point].

In the case of `COc1ccccc1CNC(=O)Cc1csc2nc(-c3ccc(Cl)cc3)cn12`, the AC50 under setting [1] was 10 µM [falling, partial curve].

Take `CCOc1cc(CNC(=O)c2ccc(C)c(NC(=O)c3nsc4ccccc34)c2)ccc1OC`: the AC50 under setting [1] is 0.0251 µM [falling, full curve].

Regarding `Cc1cc(C)cc(NC(=O)CN2C(=O)COc3ccc(S(=O)(=O)Nc4ccccc4)cc32)c1`, the AC50 under setting [1] was 15.8 µM [falling, partial curve].

Regarding `COc1ccc(NC(=O)C2CCN(c3cc(-c4ccccc4)nc4ncnn34)CC2)cc1OC`, the AC50 under setting [1] was 31.6 µM [falling, partial curve].

Consider `CCN1CCN(Cc2c(O)ccc3oc(C)c(C(=O)Nc4ccc(OC)c(Cl)c4)c23)CC1`, for which the AC50 under setting [1] is 12.6 µM [falling, partial curve].

As for `CCOC(=O)c1ccccc1NC(=O)CSc1nc2ncccc2o1`, under setting [1], the AC50 is 15.8 µM [falling, partial curve].

As for `Cc1ccc2nc(-c3ccncc3)c(Nc3ccccc3C)n2c1`, under setting [1], the AC50 is 39.8 µM [falling, single point].

Consider `CC1=C(c2ccc(C)cc2)S(=O)(=O)N=C1N1CCN(c2ccccc2)CC1`, for which, under setting [1], the AC50 was 31.6 µM [falling, single point].

For the compound `Nc1ccc(C(=O)OCc2nc3ccccc3[nH]2)cc1`, the concentration at half-maximal activity (AC50) under setting [1] was 2 µM [falling, partial curve].

On to `Cc1ccc(CSC2=Nc3ccccc3C3=NC(CC(=O)NC4CCCCC4)C(=O)N23)c(C)c1` (stereo not drawn), for which the AC50 under setting [1] is 12.6 µM [falling, partial curve].

As for `CCC(C)NC(=O)c1cn(CC)c2ccc(S(=O)(=O)N3CCCCC3)cc2c1=O` (stereo not drawn), under setting [1], the AC50 was 7.94 µM [falling, partial curve].

Consider `Cc1ccc(NS(=O)(=O)c2ccc3c4c(cccc24)C(=O)N3)c(C)c1`, for which, under setting [1], the AC50 is 20 µM [falling, partial curve].

For `Cc1cc(Nc2cccc(C(F)(F)F)c2)ncn1`, under setting [1], the AC50 is 2.51 µM [rising, partial curve].

Regarding `CCN1C(=O)C(C(=O)Nc2ccc(OC)cc2)C2CC1(C)Oc1ccccc12` (stereo not drawn), the AC50 under setting [1] is 3.98 µM [falling, full curve].

On to `Cc1ccc(-c2nc3sccn3c2Nc2ccccc2C)cc1`, for which the AC50 under setting [1] was 25.1 µM [falling, partial curve].

Regarding `O=C(NC1CCCCC1)N(Cc1nc2ccccc2c(=O)[nH]1)C1CCCCC1`, the AC50 under setting [1] was 20 µM [falling, partial curve].

Take `CSCCC(NS(=O)(=O)c1ccc2c(c1)oc(=O)n2C)C(=O)N1CCN(c2cc(Cl)ccc2C)CC1` (stereo not drawn): the AC50 under setting [1] was 10 µM [falling, partial curve].

As for `CCN(CCCNC(=O)c1cc2cc3cc(OC)ccc3nc2s1)c1cccc(C)c1`, the AC50 under setting [1] was 10 µM [falling, partial curve].

As for `CCC(=O)Oc1c(Sc2ccc(Cl)cc2)c(C)nn1C(C)(C)C`, the AC50 under setting [1] was 10 µM [falling, partial curve].

Consider `O=C(CC(SCCO)c1ccc2c(c1)OCO2)c1cccs1` (stereo not drawn), for which the AC50 is 20 µM [rising, partial curve] under setting [2] and 25.1 µM [falling, single point] under setting [3].

Consider `COc1ccc(N(C(=O)COc2c(C)cccc2C)S(=O)(=O)c2ccc(Cl)cc2)cc1`, for which the AC50 under setting [1] was 7.94 µM [falling, full curve].

As to `Cc1ccccc1C(=O)NCC(c1cccnc1)N1CCc2ccccc21` (stereo not drawn), the AC50 under setting [1] is 39.8 µM [falling, single point].

As for `CCOC(=O)c1c(C)sc(-c2c(-c3ccc4c(c3)OCCO4)[nH]c3c2c(=O)[nH]c(=O)n3C)c1O`, the AC50 under setting [1] is 20 µM [falling, single point].

Consider `CCOC(=O)C1CCN(C(=O)c2cc3cc4cc(OC)ccc4nc3o2)CC1`, for which, under setting [1], the AC50 was 0.0316 µM [falling, full curve].

For the compound `Cc1ccc(-c2nnc(Nc3ccc(O)cc3)c3ccccc23)cc1S(=O)(=O)NCc1nc2ccccc2[nH]1`, under setting [1], the AC50 was 3.98 µM [falling, partial curve].

For `COc1cccc(-n2c(=O)c3sc4ccccc4c3n(CC(=O)Nc3ccc(F)cc3F)c2=O)c1`, the AC50 under setting [1] is 6.31 µM [falling, partial curve].

Consider `COc1cc(NC(=O)CSc2nc(C)c(C(=O)Nc3ccccc3)c(-c3ccc(OC)c(OC)c3)c2C#N)c(OC)cc1Cl`, for which the AC50 under setting [1] was 7.94 µM [falling, partial curve].

In the case of `CC(C)CN(CCCNC(=O)CN1C(=O)COc2ccc(S(=O)(=O)N3CCCCCC3)cc21)CC(C)C`, under setting [1], the AC50 was 0.2 µM [rising, full curve].

`Cc1ccc(Cl)cc1N1CCN(CCCNc2ncnc3onc(-c4ccc(F)cc4)c23)CC1`: the AC50 under setting [1] is 10 µM [falling, partial curve].

In the case of `CCOCCCn1c(=N)c(S(=O)(=O)c2ccc(C)cc2)cc2c(=O)n3ccccc3nc21`, the AC50 under setting [1] is 0.316 µM [rising, full curve].

Regarding `COc1ccc2nc3sc(C(=O)Nc4cc(Cl)c(OC)cc4OC)cc3cc2c1`, the AC50 under setting [1] was 12.6 µM [rising, partial curve] [measured here: IkB-luc green channel].

With `CCN1CCN(Cc2c(O)ccc3c(=O)c(Oc4ccccc4Cl)c(C(F)(F)F)oc23)CC1`, the AC50 under setting [1] was 3.16 µM [falling, full curve, poor fit].

For the compound `CCOC(=O)c1c(C)oc2nc(C)nc(NCc3ccc(C)cc3)c12`, the AC50 under setting [1] is 0.0126 µM [falling, full curve].

For `CCOCCCn1c(=N)c(C(=O)NCc2ccco2)cc2c(=O)n3ccccc3nc21`, the AC50 under setting [1] is 0.158 µM [rising, full curve, poor fit].

As for `Cc1ccc(-c2nnc(Nc3ccc(Cl)cc3)c3ccccc23)cc1S(=O)(=O)N1CCOCC1`, the AC50 under setting [1] is 3.98 µM [falling, partial curve, poor fit].

In the case of `COc1ccc(CNC(=O)CCc2nc3cccnc3n2Cc2ccccc2)cc1`, under setting [1], the AC50 was 0.0251 µM [falling, full curve].

On to `Cc1cccc(N2CCN(C(=O)c3c(C)oc4nc(C)nc(N5CCCC5)c34)CC2C)c1` (stereo not drawn), for which, under setting [1], the AC50 is 0.0501 µM [falling, full curve, poor fit].

Regarding `Cc1ccc(-n2ncc3c(Nc4cccc(C)c4)ncnc32)cc1`, the AC50 under setting [1] is 0.316 µM [rising, full curve].

For `O=C(c1cc(-c2ccc(Cl)c(Cl)c2)on1)N1CCN(c2ccccc2)CC1`, the AC50 under setting [1] is 0.158 µM [falling, full curve].

For `COc1ccc(NC(=O)c2ccc3c(c2)c(C)c(C)n3Cc2ccc(F)cc2)c(OC)c1`, the AC50 under setting [1] is 7.94 µM [rising, full curve, poor fit].

For `COc1ccc(-c2nn3c(-c4ccc(C)cc4)nnc3c3ccccc23)cc1`, the half-maximal activity concentration (AC50) under setting [1] is 39.8 µM [falling, single point].

As for `COc1cccc(CN2C(=O)c3ccccc3Sc3ccc(C(=O)NCCc4ccc(Cl)cc4)cc32)c1`, under setting [1], the AC50 is 12.6 µM [falling, partial curve].

For the compound `O=C(CSc1ncn(-c2ccccc2)n1)Nc1nc2c(s1)CCCC2`, the AC50 under setting [1] is 25.1 µM [falling, single point].

In the case of `CCc1ccc(OCC(=O)N(Cc2ccco2)Cc2ccco2)cc1`, the AC50 under setting [1] was 31.6 µM [falling, single point].

For `O=C(c1cc(-c2ccccc2)nc2ccccc12)N1CCN(c2ccccn2)CC1`, under setting [1], the AC50 was 12.6 µM [falling, partial curve].

Regarding `COc1ccccc1NC(=O)CCn1nc(-c2ccccc2)c2ccccc2c1=O`, the AC50 under setting [1] is 31.6 µM [falling, partial curve].

As to `Cc1cc(C)cc(OCc2cc(=O)n3cc(C)sc3n2)c1`, under setting [1], the AC50 is 12.6 µM [falling, partial curve].

As for `CN(C(=O)c1ccc2c(c1)N(Cc1ccccc1F)C(=O)c1ccccc1S2)C1CCCCC1`, the AC50 under setting [1] was 15.8 µM [falling, partial curve].

With `CCCN1CCN(CCCNC(=O)c2ccc3c(c2)sc2nc(-c4ccc(C)cc4)cn23)CC1`, under setting [1], the AC50 was 20 µM [falling, single point].

Regarding `COc1ccccc1N1CCN(c2nc3ccc(C)cc3nc2-n2nc(C)cc2C)CC1`, the AC50 under setting [1] was 39.8 µM [falling, single point].

As for `CCOC(=O)c1c(C)n(-c2ccccc2)c2ccc(OC(=O)c3ccc(OCC)c(OCC)c3)cc12`, the AC50 under setting [1] was 0.0398 µM [rising, full curve, poor fit].

Turning to `Cc1nn(-c2nc3ccccc3s2)c(N)c1-c1ccccc1`, under setting [1], the AC50 is 0.0794 µM [falling, full curve, poor fit].

What is called AC50 is the concentration at which the activity in the assay is half-maximal.
